The source of these data is PubChem BioAssay AID977622 (Broad Institute, 2014).

The structures appear in SMILES notation. The list shows a part of the results. Further columns of the screen follow, without active or inactive calls.

Experiment [1] can be described thus: wild-type E. coli growth inhibition versus h38 humanized strain – h38 mutant RFP, wild-type GFP, cherry-pick, dose response (AID 977622). The following applies: E. coli mixed culture, 24 h, total growth OD600 at 50 uM.
In experiment [2] the test system is E. coli h38 humanized mutant ribosome RFP fluorescence, mixed culture, 24 h. The description is as above. To be noted: h38 mutant RFP at 50 uM.

With `O=S(=O)(c1cnc(Cl)c(Cl)c1)N1CCCc2ccccc21`, the values for the activity change in experiment [1] and in experiment [2] were -53.6% and -31%, respectively.

Regarding `N#Cc1ccccc1CSc1nc2ccc(NC(=O)c3ccccc3C(=O)O)cc2s1`, the values for the activity change in experiment [1] and in experiment [2] were -23.1% and -30.2%, respectively. For the compound `Cc1[nH]nc2c1C(c1ccc(F)cc1)N(Cc1ccccc1)C2=O` (configuration not stated), the results for the activity change in experiment [1] and in experiment [2] were -26% and -12.6%, respectively. Consider `COc1ccc(NC(=O)Nc2cccc3c2O[C@H](CN(C)S(=O)(=O)c2ccc(C)cc2)[C@H](C)CN([C@@H](C)CO)C3=O)cc1`, for which the activity change in experiment [1] was -36.9%; in experiment [2], -21.5%. Turning to `COc1ccc(Nc2oc(-c3ccco3)nc2S(=O)(=O)c2ccc(F)cc2)cc1`, the activity change in experiment [1] is -10.3%. As for `COc1cccc(C(=O)Nc2cc(C)nn2-c2ccccc2)c1OC`, the activity change is -57% in experiment [1] and -28.9% in experiment [2]. The like results for `C=CCn1c(-c2sc(-c3ccccc3)nc2C)n[nH]c1=S` were, in that order, -41.6% and -25.3%. As to `O=[N+]([O-])c1ccccc1CN1CCN(S(=O)(=O)c2ccccc2)CC1`, the activity change was -40.9% in experiment [1] and -23% in experiment [2].

On to `O=C(Nc1ccc2c(c1)OCO2)c1cc(-c2ccncc2)nc2ccccc12`, for which the activity change was -47.3% in experiment [1] and -23.3% in experiment [2]. `CCn1cc(Br)c(C(=O)Nc2ccc(C(=O)OC(C)C)cc2)n1`: the activity change in experiment [1] is -23.1%; in experiment [2], -19.7%.

`CC(=O)Oc1ccc(N(C(C)=O)S(=O)(=O)c2ccc(Cl)cc2)c2ccccc12`: the activity change in experiment [1] is -6.76%; in experiment [2], 11.2%. The like results for `CC(C)CC#Cc1ccc([C@@H]2[C@H](CO)N3CCCCN(S(=O)(=O)c4ccc(F)cc4)C[C@@H]23)cc1` were, in that order, -53.1% and 49.2%. Turning to `CC(C)NC(=O)N(C)C[C@H]1OCCCC[C@@H](C)Oc2ccc(NC(=O)Nc3cccc4ccccc34)cc2C(=O)N([C@@H](C)CO)C[C@H]1C`, the activity change was -4.38% in experiment [1] and 16.2% in experiment [2]. Consider `O=C(CSCc1c(Cl)cccc1Cl)Nc1cccnc1`, for which the activity change in experiment [1] is -15.4%. For `O=C(Nc1ccc(Nc2ccccc2)cc1)c1ccc(Cl)cc1[N+](=O)[O-]`, the activity change in experiment [1] is -81.4%; in experiment [2], 106%.

As to `C[C@H](CO)N1C[C@H](C)[C@H](CN(C)C)OCCCC[C@H](C)Oc2ccc(NC(=O)Nc3cccc4ccccc34)cc2C1=O`, the figures for the activity change in experiment [1] and in experiment [2] were 3.16% and 12%, respectively. `Cn1c(SCCOc2ccccc2F)nc2ccccc2c1=O`: in experiment [1], the activity change is -74.1%. The same measure, in the same setting: the value for `COC(=O)c1c(NC(=O)c2ccccc2C(=O)O)sc2c1CCC2` was -34.3%. As to `CCn1c(SCC(=O)Nc2ccc(OC)cc2)nc2nc3c(cc2c1=O)CCCC3`, the values for the activity change in experiment [1] and in experiment [2] were -39.3% and -25.9%, respectively. As to `Cc1ccc(Oc2ccc(S(=O)(=O)N3CCOCC3)cc2C(N)=O)cc1C`, the activity change in experiment [2] is -39.6%. `C[C@@H](NC(=O)C[C@@H]1CC[C@@H]2[C@H](COC[C@H](O)CN2C(=O)Nc2cccc(F)c2)O1)c1ccccc1`: the results for the activity change in experiment [1] and in experiment [2] were 4.78% and 21.8%, respectively. For `Cc1nc([N+](=O)[O-])c(Br)n1CC(=O)c1ccc(F)cc1`, the activity change in experiment [1] was -15.5%; in experiment [2], -24.5%.

Turning to `Cc1ccc(S(=O)(=O)Nc2ccccc2CNc2ccccn2)cc1`, the figures for the activity change in experiment [1] and in experiment [2] were -66.9% and 36%, respectively. The like results for `CC1(C)c2ccccc2C(=O)c2ccccc21` were, in that order, -45.1% and -12.5%. Turning to `CCc1cc(C(=O)N2CCCC(C(=O)c3cccc4ccccc34)C2)n(C)n1` (configuration not stated), the activity change in experiment [1] is -22.8%; in experiment [2], 15%. As for `Brc1ccc(-n2cnc(-c3ccccc3)c2)cc1`, the activity change in experiment [2] is -31.6%.

With `C[C@H]1CCCCO[C@H](CN(C)C(=O)CCCN(C)C)[C@@H](C)CN([C@@H](C)CO)C(=O)c2cc(NC(=O)Nc3cccc4ccccc34)ccc2O1`, the activity change in experiment [1] is -5.75%. Take `COc1ccc(-n2ccnc2SCC(=O)NCc2ccccc2)c(OC)c1`: the figures for the activity change in experiment [1] and in experiment [2] were -24.8% and 42.8%, respectively.

In the case of `O=C(CC(c1ccccc1)c1cc(Br)ccc1O)N1CCCC1` (configuration not stated), the activity change in experiment [1] is -66.9%. Turning to `CC(C)Oc1nc(-c2ccccc2Cl)nc2ccccc12`, the figures for the activity change in experiment [1] and in experiment [2] were -0.552% and 14.8%, respectively.

Consider `CN1N=C2c3ccccc3CCC2C1c1ccc(F)cc1` (configuration not stated), for which the activity change in experiment [1] is -4.84%; in experiment [2], -14.5%.

Take `CN(C)CCCN(C(=O)c1ccc(S(=O)(=O)N(C)Cc2ccccc2)cc1)c1nc2c(F)cccc2s1`: the activity change in experiment [1] is -48.4%; in experiment [2] it was -31.9%. The like results for `CCOC(=O)C(CC)Sc1cc(C)nc2ccc(OC)cc12` (configuration not stated) were, in that order, -18.4% and -12.2%. Take `CN(Cc1ccc([N+](=O)[O-])cc1)c1ccccc1`: the results for the activity change in experiment [1] and in experiment [2] were -18.1% and -13.1%, respectively. Take `CCOc1ccccc1NS(=O)(=O)c1ccc(Br)s1`: the activity change in experiment [1] is -41.1%; in experiment [2], 20.8%.

Consider `COc1cccc(-c2ccc(NC(=O)C3CCCN(Cc4cnn(C(C)C)c4)C3)cc2)c1` (configuration not stated), for which the results for the activity change in experiment [1] and in experiment [2] were -35.9% and -27.9%, respectively. `Cc1ccc(-n2ncc3c(SCc4ccccn4)ncnc32)c(C)c1`: the activity change in experiment [1] was -83.5%; in experiment [2] it was 0.698%. In the case of `CCCn1c(=O)c2ccccc2n2c(SCCOc3ccc(OC)cc3)nnc12`, the values for the activity change in experiment [1] and in experiment [2] were -20.5% and -7.27%, respectively. Regarding `O=C(CCc1ccccc1)Nc1sc2c(c1C(=O)O)CCCC2`, the activity change in experiment [1] was -47.4%.

As to `Cc1ccc(-c2n[nH]c(S(C)(=O)=O)c2C#N)cc1`, the values for the activity change in experiment [1] and in experiment [2] were -17.3% and 7%, respectively. The like results for `CCN(CC)C(=O)c1ccc(COc2ccccc2Cl)o1` were, in that order, -38.6% and -39%. As for `CC(CNc1ccc(Cl)cc1)(CNc1ccc(Cl)cc1)[N+](=O)[O-]`, the activity change in experiment [1] is -35.5%; in experiment [2], -16.9%. As for `CC(C)Oc1ccc(C(=O)Nc2cccc3cccnc23)cc1`, in experiment [1], the activity change was -15.8%. On to `Nc1c(Cl)cc(C2=NCCn3nc4ccccc4c32)cc1Cl`, for which the results for the activity change in experiment [1] and in experiment [2] were -57.7% and -54.6%, respectively. The like results for `C[C@@H]1CN([C@H](C)CO)C(=O)c2cccc(NC(=O)c3ccncc3)c2O[C@@H]1CN(C)S(=O)(=O)c1ccc(Cl)cc1` were, in that order, -39.9% and -36.3%. Turning to `Cc1cc(Br)ccc1NC(=O)c1ccco1`, the activity change is -11.2% in experiment [1] and -12.7% in experiment [2].
